Assay results: patent publication US20250346630A1, “Engineering Peptides Using Peptide Epitope Linker Evolution” (AGENCY FOR SCIENCE, TECHNOLOGY AND RESEARCH, priority 2022, published 2025)
These are yes or no findings as the source states them, for the method shown.

Tests used:
KRas = assay: M13 linear 12mer phage selection on the control protein, NGS abundance heat map [CONT.) D]
MDM2 [1] = assay: as above
MDM2 [2] = assay: M13 C7C phage selection on the control protein, NGS abundance heat map [CONT.) C]

| binding (KRas) | binding (MDM2 [1]) | binding (MDM2 [2]) | Binder |
| --- | --- | --- | --- |
| no binding | no binding |  | YLMQTNQWQIAS |
| no binding | no binding |  | AQSYTRMELLRL |
| no binding | no binding |  | TISYDRSTLFLF |
| no binding | no binding |  | DSAKERLAVSGT |
| no binding |  |  | HYSRTDLLAYRW |
| no binding | no binding |  | LPRMMSDGEAGD |
|  |  | no binding | CETGFFTGC (two flanking Cys of the disulphide constrained C7C library) |
|  |  | no binding | CETGFFLKC (two flanking Cys of the disulphide constrained C7C library) |
|  |  | no binding | CEMGYFGNC (two flanking Cys of the disulphide constrained C7C library) |
| no binding |  |  | SGIQQRMIVTWP |
|  |  | no binding | CIHSPTSLC (two flanking Cys of the disulphide constrained C7C library) |
| no binding | no binding |  | VEGQNLEALVTD |
|  |  | no binding | CETGFFLRC (two flanking Cys of the disulphide constrained C7C library) |
|  |  | no binding | CETGFYKTC (two flanking Cys of the disulphide constrained C7C library) |
|  |  | no binding | CELGYYNDC (two flanking Cys of the disulphide constrained C7C library) |
| no binding |  |  | KLWSIPTNFLLP |
|  |  | no binding | CETGYFSQC (two flanking Cys of the disulphide constrained C7C library) |
|  |  | no binding | CELGFYRLC (two flanking Cys of the disulphide constrained C7C library) |
